US20240400980A1, “PORCINE PLURIPOTENT STEM CELL CULTURE MEDIUM AND USE THEREOF” (CHINA AGRICULTURAL UNIVERSITY, priority 2021, published 2024)
For at least one compound, name, drawing or mass did not settle the structure.

System: pgEpiSCs
Test: Clone morphology and alkaline phosphatase (AP) staining of pgEpiSCs in modified 3i/LAF medium
Type: cell-based, porcine
Details: inhibitor added to the medium
Text: The alkaline phosphatase staining for pgEpiSCs was based on the Alkaline Phosphatase Detection Kit (Millipore, SCR004).
The specific experimental steps followed the instructions for the kit.
Based on the prepared 3i/LAF medium and its culture method in2 above, the requirement of various factors for long-term maintenance in vitro of pgEpiSCs was test by the inventors under the same conditions as in 2 above, except for removing small molecule inhibitors and cytokines from the medium one by one.
In addition, based on the prepared 3i/LAF medium and its culture method in 2 above, the following tests were also performed by the inventors under the same conditions as in 2 above.
According to the 3i/LAF medium and its culture method prepared in 2 above, the inventors also investigated the effect of the adjusted or replaced medium on the long-term in vitro maintenance of pgEpiSCs on the basis of adjusting the concentrations of the small molecule inhibitors and cytokines or replacing the compositions of the small molecule inhibitors and cytokines in the culture medium one by one without altering the other conditions.
Experimental method: pgEpiSCs were cultured with the adjusted medium, after which AP staining was performed on the cultured pgEpiSCs of P1 (indicating the pgEpiSCs after 1 passage in the adjusted medium) or P3 (indicating the pgEpiSCs after 3 passages in the adjusted medium). […]

SMILES: N#CC[C@H](C1CCCC1)n1cc(-c2ncnc3[nH]ccc23)cn1 [ruxolitinib]
- clone morphology after addition of the inhibitor: made the clones flattened
